## Primary screen of a compound library

Values are the deposited “Percent Effect”, in %.
The record does not define 0% and 100%; most values in the screen are far below 50% and negative numbers occur (in some assays of this library far below -100).
The compounds are a random part of those screened.
A dash means the value is not listed here; it may have been measured.

Mtb growth Cornell: 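Whole-cell assay for inhibitors of Mycobacterium tuberculosis growth, labelled Cornell in the record; the read-out is not stated. The concentration is filed as 10 mM, unlikely as a test dose, so the dose is not known. The record gives no direction; compounds strong in two other growth screens of this library score well above the rest, so higher reads as stronger inhibition. Size under these conditions: about 53,000 compounds, about 900 of them at 50% or above in at least one test.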
Mtb heat-shock: 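Assay on Mycobacterium tuberculosis, filed only as a heat shock assay from Cornell; the read-out is not stated. The concentration is filed as 10 mM, unlikely as a test dose, so the dose is not known. Direction is inferred from retests: higher values go with stronger inhibition. About 69,000 compounds were tested under these conditions; 1.4% (about 930) showed 50% or more at least once.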

* O=C(NCCOc1ccc(Cl)cn1)Nc1nccs1 : Mtb growth Cornell: -18.9%; Mtb heat-shock: -28.17%
* COC(=O)NCC(=O)N1CCCC1c1nc(-c2ccccc2F)c[nH]1 (stereo unspecified) : Mtb growth Cornell: -26.63%; Mtb heat-shock: 8.716%
* Cc1n[nH]c2ncc(CNC3CCN(Cc4ccccn4)CC3)cc12.Cl : Mtb growth Cornell: -19.49%; Mtb heat-shock: -15.17%
* N#Cc1cnc(NCc2ccc(C(=O)NC3CC3)cc2)c(Cl)c1 : Mtb heat-shock: -7.001%
* Cn1ccnc1CNC[C@H]1Cn2cc(-c3ccccc3)nc2CO1 : Mtb growth Cornell: -22.94%; Mtb heat-shock: 6.971%
* O=C(c1ccc(F)c(F)c1)N1CCCC(Nc2ccc(F)cc2)C1 (stereo unspecified) : Mtb heat-shock: 18.81%
* Cc1ccc(F)cc1NS(=O)(=O)c1cc2c(c(C(=O)O)c1)OCCO2 : Mtb growth Cornell: -2.821%; Mtb heat-shock: -21.59%
* Cc1nc(COCc2cnc3n2CCN(CC2CCC2)C3C)cs1.O=C(O)C(F)(F)F (stereo unspecified) : Mtb growth Cornell: 30.74%; Mtb heat-shock: 20.1%
* Cc1cc(-n2cnnn2)n2ncnc2n1 : Mtb growth Cornell: -30.4%; Mtb heat-shock: -4.919%
* CS(=O)(=O)CCCN1CCOC2(CCc3ccccc32)C1 (stereo unspecified) : Mtb growth Cornell: -2.094%; Mtb heat-shock: -22.49%
* Cc1nccnc1N1Cc2cnn(Cc3ccc(F)cc3)c2C1 : Mtb growth Cornell: 5.773%; Mtb heat-shock: -8.687%
* [H][C@]12CC[C@]([H])(CN(C(=O)Cc3c(C)nc(CC)[nH]c3=O)C1)N(CCC)C2 : Mtb heat-shock: 17.98%
* O=C(CCCn1ccnc1)N1CCC2(CC1)[C@H](O)C[C@@H]2OCCO : Mtb growth Cornell: 6.652%; Mtb heat-shock: -4.028%
* O=C(C1CCC1)N1CCC(C(=O)N2CCC(c3ccc(F)cc3)C2)CC1 (stereo unspecified) : Mtb growth Cornell: 4.346%; Mtb heat-shock: -3.352%
* Cc1cnn(C2CCCN(C(=O)c3ccnc(-n4ccnc4)c3)C2)c1 (stereo unspecified) : Mtb heat-shock: -0.5954%
* Cc1ccc(C2(O)CCN(Cc3nnc(-c4cccnc4)o3)CC2)nc1 : Mtb growth Cornell: 1.991%; Mtb heat-shock: 17.88%
* COC(=O)CN1CCN(c2cccc(C)c2)CC1 : Mtb growth Cornell: 0.518%; Mtb heat-shock: -22.5%
* CN(C)CCn1c(=O)oc2ccc(NC(=O)N3CCCCCC3)cc21 : Mtb growth Cornell: -18.46%; Mtb heat-shock: 40.41%
* Cc1cc(C)n(CCC(=O)N2CCC(Nc3cccnn3)CC2)n1 : Mtb heat-shock: 6.1%
* O=C(NCCN1C(=O)c2ccccc2C1=O)c1scnc1Cl : Mtb growth Cornell: -33.45%; Mtb heat-shock: -30.34%
* Cn1cnnc1-c1cncc(NCc2cccc3c2OCO3)c1 : Mtb growth Cornell: 6.87%; Mtb heat-shock: 3.744%
* CCN(C(=O)CN1CCCC1c1cccs1)c1ccccc1C (stereo unspecified) : Mtb growth Cornell: 11%; Mtb heat-shock: 16.8%
* Cc1n[nH]c(C)c1CCNC(=O)Nc1ccc(S(C)(=O)=O)cc1 : Mtb heat-shock: -34.41%
* O=C(O)c1ccnc2c(Br)cccc12 : Mtb growth Cornell: 13.48%; Mtb heat-shock: -32.11%
* CCOC(=O)c1cc(C(C)(O)CCC=C(C)C)on1 (stereo unspecified) : Mtb growth Cornell: 106.6%; Mtb heat-shock: 1.76%
* Cn1cccc1C(=O)NCc1cn2c(n1)CN(Cc1ccccn1)CC2.O=C(O)C(F)(F)F.O=C(O)C(F)(F)F : Mtb growth Cornell: 17.5%; Mtb heat-shock: 5.48%
* [H][C@@]12CS(=O)(=O)C[C@]1([H])N(C(=O)c1cc[nH]n1)CCN2CCC : Mtb heat-shock: 5.546%
* CC(C)CN1CCCC2(CCN(C(=O)c3cnccn3)C2)C1 (stereo unspecified) : Mtb growth Cornell: 13.58%; Mtb heat-shock: -10.26%
* Cl.c1cc(CNCc2ccc(-n3cncn3)nc2)cc(OC2CCCC2)c1 : Mtb heat-shock: 9.268%
* Cl.NC1CCN(C(=O)c2c(F)cccc2Br)CC1 : Mtb heat-shock: -5.558%

Once more, the final 3:

SMILES	Mtb growth Cornell	Mtb heat-shock
CC(C)CN1CCCC2(CCN(C(=O)c3cnccn3)C2)C1 (stereo unspecified)	13.58	-10.26
Cl.c1cc(CNCc2ccc(-n3cncn3)nc2)cc(OC2CCCC2)c1	-	9.268
Cl.NC1CCN(C(=O)c2c(F)cccc2Br)CC1	-	-5.558

Source: ChEMBL document CHEMBL3988442, “University of Dundee, Small-Polar-MMV Screening Library” (2021).